PubChem BioAssay AID1224830 – NIAID | 2016
Shown is a random part of about 18,000 reagents tested. Of all reagents, about 2,900 (16%) were called active. 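Calls are made per well; low scores hint the gene aids the LPS response, high scores that it dampens it.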 Entries without a mark were called inactive. Repeated entries: four replicate wells of each siRNA pool.

Purpose: 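Genes whose knock-down alters the TNF-alpha reporter response to LPS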 (primary screen)
System: human THP-1 monocytic leukaemia cells, TNF dual-luciferase reporter clone, PMA-differentiated to macrophage-like cells
Reagent: siRNA pool against human genes, 50 nM
Time to read-out: LPS for 4 h, given about 3 days after siRNA transfection
Challenge: bacterial LPS (TLR4 ligand), 10 ng/ml
Detection: 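TNF firefly reporter luminescence divided by renilla, normalised to the plate median, then turned into a robust z-score for each replicate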
Reading the numbers: TNF reporter robust z-score: higher = stronger TNF reporter response to LPS
Hit rule: 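Each well counts as active if its z-score is over 2.8 or under -1.5; controls are left without a call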

| gene knocked down | TNF reporter robust z-score |
| --- | --- |
| ZNRF3 | -1.08 |
| ZNRF3 | -0.32 |
| ZNRF3 | -0.88 |
| ZNRF3 | 0.64 |
| AMPD1 | -1.15 |
| AMPD1 | -0.76 |
| AMPD1 | -1.27 |
| AMPD1 | -0.8 |
| FAABTP | 1.51 |
| FAABTP | 1.01 |
| FAABTP | 0.71 |
| FAABTP | -0.2 |
| NKAIN3 | -1.48 |
| NKAIN3 | 0.54 |
| NKAIN3 | 1.39 |
| NKAIN3 | 0.38 |
| CHN2 | 0.1 |
| CHN2 | -0.4 |
| CHN2 | -0.33 |
| CHN2 | -0.86 |
| H2BC4 | 0.83 |
| H2BC4 | -0.22 |
| H2BC4 | -1.18 |
| H2BC4 | -1.02 |
| RPS6KA2 | 0.63 |
| RPS6KA2 | 1.88 |
| RPS6KA2 | 2.3 |
| RPS6KA2 | 2.37 |
| ABCB1 | -0.11 |
| ABCB1 | 0.25 |
| ABCB1 | 1.06 |
| ABCB1 | 0.75 |
| SEPSECS | 0.39 |
| SEPSECS | -0.14 |
| SEPSECS | 0.66 |
| SEPSECS | 0.24 |
| BEST1 | -0.25 |
| BEST1 | 2.15 |
| BEST1 | -0.59 |
| BEST1 | 0.58 |
| RND2 | -1.73 (active) |
| RND2 | -1.69 (active) |
| RND2 | -1.78 (active) |
| RND2 | -1.54 (active) |
| LINC02908 | -0.86 |
| LINC02908 | -0.55 |
| LINC02908 | -0.01 |
| LINC02908 | 0.06 |
| RASGRP1 | 2.61 |
| RASGRP1 | 4.98 (active) |
| RASGRP1 | 1.73 |
| RASGRP1 | 1.3 |
| KRT15 | -0.54 |
| KRT15 | -0.56 |
| KRT15 | -1.59 (active) |
| KRT15 | -0.36 |
| SOX7 | 0.7 |
| SOX7 | 0.69 |
| SOX7 | -0.24 |
| SOX7 | 1.2 |
| ROPN1 | 0.43 |
| ROPN1 | 0.2 |
| ROPN1 | 0.27 |
| ROPN1 | -0.46 |
| ATG4D | 0.66 |
| ATG4D | 1.35 |
| ATG4D | 0.77 |
| ATG4D | 1.39 |
| CBARP | 0.82 |
| CBARP | -0.1 |
| CBARP | -0.76 |
| CBARP | -0.72 |
| PSTK | -0.59 |
| PSTK | 0.62 |
| PSTK | -1.37 |
| PSTK | 0.27 |
| NDUFA10 | -0.26 |
| NDUFA10 | 0 |
| NDUFA10 | -0.74 |
| NDUFA10 | 1.91 |
| CAPN12 | -1.43 |
| CAPN12 | -1.29 |
| CAPN12 | -1.11 |
| CAPN12 | -1.35 |
| FGB | -0.51 |
| FGB | 0.07 |
| FGB | -0.24 |
| FGB | -0.73 |
| OR9Q1 | -0.13 |
| OR9Q1 | 1.25 |
| OR9Q1 | -0.54 |
| OR9Q1 | 0.97 |
| CR2 | 1.12 |
| CR2 | 2.5 |
| CR2 | -0.63 |
| CR2 | 0.87 |
| MEIS1 | -0.99 |
| MEIS1 | -0.16 |
| MEIS1 | -1.01 |
| MEIS1 | -0.13 |
| MMP11 | -1.24 |
| MMP11 | -0.44 |
| MMP11 | 1.01 |
| MMP11 | 2.01 |
| HDAC7 | -0.72 |
| HDAC7 | -0.42 |
| HDAC7 | -0.47 |
| HDAC7 | -0.2 |
| ICAM5 | 3.86 (active) |
| ICAM5 | 1.39 |
| ICAM5 | 0.58 |
| ICAM5 | 0.89 |

Records above whose target name begins with N or n (8):
| gene knocked down | TNF reporter robust z-score |
| --- | --- |
| NKAIN3 | -1.48 |
| NKAIN3 | 0.54 |
| NKAIN3 | 1.39 |
| NKAIN3 | 0.38 |
| NDUFA10 | -0.26 |
| NDUFA10 | 0 |
| NDUFA10 | -0.74 |
| NDUFA10 | 1.91 |
